Reference: PubChem BioAssay AID504791 (Drosophila RNAi Screening Center, 2011)
The deposit covers about 23,000 reagents; this is a random part of those with a known target gene and a result. Of all reagents, 199 (0.86%) got an active call. 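Plate-scaled ratios behind the calls are not deposited; printed light signals are raw; many rows marked increased or decreased are still called inactive.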 Entries without a mark were called inactive. No sequences are given here. Not given: the direction of the score.

Test: 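Factors in Argonaute-based small RNA production and activity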 (primary screen)
Cell system: Drosophila S2-derived reporter cells
Knock-down reagent: long dsRNA against Drosophila genes, about 150-250 ng dsRNA per well (siRNA assay); about 80-120 ng (miRNA assay)
Time to read-out: about 5 days (siRNA assay); about 4 days (miRNA assay)
Conditions: copper sulfate induction of reporters: 25 µM (siRNA assay); 200 mM stated (miRNA assay), 1-2 days before reading
Measurement: 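Per-well ratio of Renilla over firefly light, expressed relative to that plate's average ratio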
Active means: 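First-pass picks had plate-scaled ratios over 1.5 for the siRNA assay, over 1.6 for the miRNA assay, or under 0.6; two distinct dsRNAs had to score alike on retest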

The opening 4 entries, to show the layout:
no.	target gene	dsRNA	stable siRNA reporter change	miRNA reporter change	stable assay Renilla, run 1 (luminescence)	stable assay firefly, run 1 (luminescence)
1	Cpr65Au	DRSC22738			2919	3.32e5
2	CG10486	DRSC09735		reporter ratio raised past the hit cutoff	6315	3.78e5
3	ham	DRSC02070			5794	3.28e5
4	ham	DRSC02512			4663	3.90e5

Results, from the first entry:
no.	target gene	dsRNA	stable siRNA reporter change	miRNA reporter change	stable assay Renilla, run 1 (luminescence)	stable assay firefly, run 1 (luminescence)
1	Cpr65Au	DRSC22738			2919	3.32e5
2	CG10486	DRSC09735		reporter ratio raised past the hit cutoff	6315	3.78e5
3	ham	DRSC02070			5794	3.28e5
4	ham	DRSC02512			4663	3.90e5
5	ham	DRSC02513			6183	3.39e5
6	CG7607	DRSC10889			6228	4.30e5
7	Aef1	DRSC11605			7722	4.04e5
8	CG40198	DRSC21068			4183	3.81e5
9	CG42715 (retired record)	DRSC05499	reporter ratio lowered past the hit cutoff		5614	6.52e5
10	CG5321	DRSC19940			4287	3.36e5
11	CG5321	DRSC22802			2956	2.96e5
12	CG30419	DRSC04208			4139	3.53e5
13	CG30419	DRSC04209			3975	3.06e5
14	CG30419	DRSC22519			4503	6.09e5
15	CR14033	DRSC02358			11398	7.40e5
16	CG1208	DRSC12190			8531	4.33e5
17	CG14445	DRSC17938			6603	3.15e5
18	CG34297	DRSC12410			6659	4.21e5
19	mGluR	DRSC17215			6734	3.54e5
20	CG32473	DRSC14352			7259	4.50e5
21	CG32473	DRSC16446			8191	5.62e5
22	GM130	DRSC04617			7683	6.25e5
23	CG4022	DRSC10395			5832	2.54e5
24	CG3038	DRSC18618			5992	3.58e5
25	dbf	DRSC02570			7002	4.10e5
26	Sap47	DRSC16850			11384	6.21e5
27	Not1	DRSC06787	reporter ratio lowered past the hit cutoff (active)		6866	6.39e5
28	Not1	DRSC06794	reporter ratio lowered past the hit cutoff (active)		9441	8.15e5
29	Cdc14	DRSC03013			6490	3.97e5
30	Hr96	DRSC16707			8276	3.35e5
31	CG5768	DRSC15870			8394	4.02e5
32	C15	DRSC13495			3624	3.83e5
33	C15	DRSC14169			5856	2.94e5
34	SNCF	DRSC10115			4575	3.01e5
35	Srp68	DRSC10475			7982	4.20e5
36	CG18635	DRSC06780			3659	3.71e5
37	CG6481	DRSC19995			6247	5.30e5
38	Sap130	DRSC09680			8920	5.23e5
39	CG31268	DRSC13203			4551	4.02e5
40	Obp47a	DRSC06255			6594	4.99e5
41	CG32191	DRSC10522			7892	3.27e5
42	Myc	DRSC18762			6024	3.91e5
43	CG7745	DRSC07037		reporter ratio lowered past the hit cutoff	6990	3.21e5
44	CG7745	DRSC23103			4343	3.72e5
45	CG9853	DRSC12343			3899	2.84e5
46	CG9853	DRSC22840			5847	4.34e5
47	halo	DRSC00705			6518	3.59e5
48	CG42233	DRSC14328			6423	3.06e5
49	CG42233	DRSC15416			5812	2.38e5
50	CG18081	DRSC10294			7862	3.49e5
51	Cyp49a1	DRSC06737		reporter ratio lowered past the hit cutoff	6319	3.66e5
52	Cyp49a1	DRSC07367			6799	4.39e5
53	CG32214	DRSC09613			5759	3.41e5
54	Tbcb	DRSC06067			10295	3.36e5
55	CG14333 (retired record)	DRSC14812			6588	3.90e5
56	CG14333 (retired record)	DRSC15769			7831	2.92e5
57	Unc50	DRSC16561			7210	4.51e5
